Measurements reported in article PMC9686995.
No constants are given. Whether binding was seen depends on the method and setting. Binding seen in cells or lysates may run through a third protein. A yes stands for co-enrichment or nearness to the bait. Other partners may have been found. Values belong to the molecule of their own block, whether it stands above or below them.

The chains behind the UniProt entries cited, without tags or fusion partners.
UniProt Q21126: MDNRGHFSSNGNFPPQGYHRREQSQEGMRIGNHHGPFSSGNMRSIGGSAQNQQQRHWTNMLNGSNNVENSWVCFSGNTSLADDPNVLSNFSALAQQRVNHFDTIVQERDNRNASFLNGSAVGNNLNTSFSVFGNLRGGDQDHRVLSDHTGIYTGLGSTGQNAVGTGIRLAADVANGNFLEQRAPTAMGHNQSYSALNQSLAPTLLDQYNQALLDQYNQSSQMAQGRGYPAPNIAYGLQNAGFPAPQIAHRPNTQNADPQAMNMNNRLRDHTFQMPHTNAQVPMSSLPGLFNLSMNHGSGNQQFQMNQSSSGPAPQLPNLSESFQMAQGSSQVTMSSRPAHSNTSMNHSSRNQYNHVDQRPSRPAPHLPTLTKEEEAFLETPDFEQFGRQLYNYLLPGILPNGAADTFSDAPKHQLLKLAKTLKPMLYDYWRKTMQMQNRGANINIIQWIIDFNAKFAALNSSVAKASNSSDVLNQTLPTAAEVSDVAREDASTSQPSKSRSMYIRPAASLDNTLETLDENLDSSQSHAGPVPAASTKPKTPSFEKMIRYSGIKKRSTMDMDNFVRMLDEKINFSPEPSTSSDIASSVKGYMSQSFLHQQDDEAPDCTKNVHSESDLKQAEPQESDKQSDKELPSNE
UniProt Q20937: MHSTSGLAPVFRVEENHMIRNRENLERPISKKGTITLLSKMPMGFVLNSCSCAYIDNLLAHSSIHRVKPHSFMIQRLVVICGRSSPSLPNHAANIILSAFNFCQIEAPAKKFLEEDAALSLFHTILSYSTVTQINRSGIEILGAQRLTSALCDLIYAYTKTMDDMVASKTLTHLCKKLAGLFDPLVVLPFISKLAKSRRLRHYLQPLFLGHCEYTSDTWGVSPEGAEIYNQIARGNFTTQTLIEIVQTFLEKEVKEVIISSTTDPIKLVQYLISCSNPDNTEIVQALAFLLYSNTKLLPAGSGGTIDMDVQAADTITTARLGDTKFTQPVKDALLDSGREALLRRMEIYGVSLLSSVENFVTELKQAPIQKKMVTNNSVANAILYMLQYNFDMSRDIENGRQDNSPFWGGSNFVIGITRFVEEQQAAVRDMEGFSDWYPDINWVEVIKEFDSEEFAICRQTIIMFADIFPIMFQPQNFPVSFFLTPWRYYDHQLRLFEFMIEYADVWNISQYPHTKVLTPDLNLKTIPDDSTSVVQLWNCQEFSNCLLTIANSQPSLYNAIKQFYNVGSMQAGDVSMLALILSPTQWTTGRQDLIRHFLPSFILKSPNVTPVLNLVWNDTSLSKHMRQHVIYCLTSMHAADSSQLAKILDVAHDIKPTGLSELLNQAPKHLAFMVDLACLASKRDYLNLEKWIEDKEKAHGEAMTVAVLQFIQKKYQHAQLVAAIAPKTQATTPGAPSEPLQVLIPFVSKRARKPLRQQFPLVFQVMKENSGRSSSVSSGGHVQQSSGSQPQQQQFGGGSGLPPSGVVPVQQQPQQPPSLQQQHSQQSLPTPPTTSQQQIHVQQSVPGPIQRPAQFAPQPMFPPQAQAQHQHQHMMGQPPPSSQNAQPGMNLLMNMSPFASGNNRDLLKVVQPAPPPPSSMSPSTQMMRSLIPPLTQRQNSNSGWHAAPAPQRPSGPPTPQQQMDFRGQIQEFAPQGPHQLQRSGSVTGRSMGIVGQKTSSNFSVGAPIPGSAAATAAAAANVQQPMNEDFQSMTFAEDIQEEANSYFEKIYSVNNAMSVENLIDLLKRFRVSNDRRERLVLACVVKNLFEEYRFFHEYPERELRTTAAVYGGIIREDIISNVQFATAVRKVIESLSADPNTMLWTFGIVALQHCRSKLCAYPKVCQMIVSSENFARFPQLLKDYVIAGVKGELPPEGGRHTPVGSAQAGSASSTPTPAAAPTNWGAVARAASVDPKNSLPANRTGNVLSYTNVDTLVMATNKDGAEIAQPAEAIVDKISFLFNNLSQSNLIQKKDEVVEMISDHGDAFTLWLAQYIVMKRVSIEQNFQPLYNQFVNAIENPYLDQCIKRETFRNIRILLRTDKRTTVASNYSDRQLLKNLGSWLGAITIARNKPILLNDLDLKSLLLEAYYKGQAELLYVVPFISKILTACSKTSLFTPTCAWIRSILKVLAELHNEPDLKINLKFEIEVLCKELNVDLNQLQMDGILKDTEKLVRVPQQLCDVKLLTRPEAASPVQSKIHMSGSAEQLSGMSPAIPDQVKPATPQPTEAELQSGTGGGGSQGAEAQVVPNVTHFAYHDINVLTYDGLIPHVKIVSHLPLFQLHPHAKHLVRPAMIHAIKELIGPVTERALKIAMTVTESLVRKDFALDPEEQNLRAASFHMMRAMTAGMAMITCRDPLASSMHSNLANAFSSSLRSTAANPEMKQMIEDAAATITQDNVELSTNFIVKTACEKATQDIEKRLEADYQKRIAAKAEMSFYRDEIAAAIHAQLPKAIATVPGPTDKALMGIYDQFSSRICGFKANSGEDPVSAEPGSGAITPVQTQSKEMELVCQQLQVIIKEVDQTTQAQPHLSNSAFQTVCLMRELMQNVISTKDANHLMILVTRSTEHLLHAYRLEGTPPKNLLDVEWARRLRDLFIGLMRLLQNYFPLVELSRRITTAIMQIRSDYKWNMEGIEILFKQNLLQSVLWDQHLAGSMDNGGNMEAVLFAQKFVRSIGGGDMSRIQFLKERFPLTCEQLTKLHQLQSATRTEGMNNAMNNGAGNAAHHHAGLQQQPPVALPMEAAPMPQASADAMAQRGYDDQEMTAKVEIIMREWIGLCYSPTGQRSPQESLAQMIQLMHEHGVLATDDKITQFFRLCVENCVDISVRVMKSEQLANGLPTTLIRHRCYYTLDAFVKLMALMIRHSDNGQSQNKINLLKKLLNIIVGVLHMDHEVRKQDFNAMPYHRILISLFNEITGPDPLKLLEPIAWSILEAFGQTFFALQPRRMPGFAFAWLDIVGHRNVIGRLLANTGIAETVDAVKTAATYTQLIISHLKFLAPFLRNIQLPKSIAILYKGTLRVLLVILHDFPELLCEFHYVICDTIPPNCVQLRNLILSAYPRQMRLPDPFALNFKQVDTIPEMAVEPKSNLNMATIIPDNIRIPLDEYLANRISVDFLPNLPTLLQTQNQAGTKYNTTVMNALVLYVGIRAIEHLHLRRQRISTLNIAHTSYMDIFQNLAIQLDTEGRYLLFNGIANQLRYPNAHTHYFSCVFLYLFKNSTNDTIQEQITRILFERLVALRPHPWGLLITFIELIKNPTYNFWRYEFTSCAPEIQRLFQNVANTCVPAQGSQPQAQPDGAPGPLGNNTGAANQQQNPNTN

Molecular target: MEG-1::GFP (C. elegans) (UniProt Q21126)
Experiment: affinity purification with mass spectrometry; MEG-1::GFP immunoprecipitated from early embryo lysates with anti-GFP nanobody magnetic beads (4°C, 90 min; IP buffer 300 mM KCl, 50 mM HEPES pH 7.4, 1 mM EGTA, 1 mM MgCl2, 1% glycerol, 0.1% NP-40); LC-MS-MS; control: wild-type lysates with untagged MEG-1; two biological replicates

binding: binds
Molecule: NTL-1 (from UniProt Q20937 1-2641)

binding: binds
B2: OMA-1 (protein, UniProt G5EC86 1-407)
chain: MNVNGENNEKIDEHHLESSLAGVPTLPVSPLDHAKDLSQTNPNAQIGDLVTQTANLIAIKKQLLEDIAFNQHIQSMQVRAIQSFPQNNQVAPPFQQFDPRRRGLARMQKPESYKTVICQAWLESKTCSFADNCRFAHGEEELRPTFVEPLQNNKYKTKLCDKYTTTGLCPYGKRCLFIHPDHGPNAYIRADKLLEVSQRHALADIRDQMEQHIMTNGRIAAPPLSAIQHPLEMFARPSTPDEPAAKLPLGPTPVSTRGPRYELPTKELHDAEGAMTYPPSRWPLDPSMFALDAWNMAHRPASPLDSMVLGSAPNAGSFGMLGKQNTPGGVSGYSSAGSTPSQDLSSSSLNAASAAAAAAYFANSAVAQSLLMKSVATDPMMSCNGPFSPMPGFDQLAENMTKHLNLW

More lines, now with the values behind:

B1: DCAP-2 (protein, UniProt O62255 1-786)
chain: MEISTENWCKKPKNRSIFSKNISFQKQNKSTEEPPSSVQKLLASLQQAQNKSDLSEQPSTSKPKKNEKRKKAVAQAPASAPAPGPEEKKKQPKRASVGARMQQQAENARISQTKRPRQVSTSKGSSRNTTAPEQQNYQQQQQQYKGPRIPTDILDELEFRFISNMVECEINDNIRVCFHLELAHWYYIDHMVEDDKISGCPNVGSRDFNFQMCQHCRVLRKYAHRADEVLAKFREYKSTVPTYGAILVDPEMDHVVLVQSYFAKGKNWGFPKGKINQAEPPRDAAIRETFEETGFDFGIYSEKEKKFQRFINDGMVRLYLVKNVPKDFNFQPQTRKEIRKIEWFKIDDLPTDKTDELPAYLQGNKFYMVMPFVKDIQIYVQKEKEKLRRRKAEAVQSTPSSSIFSQLFPAQPPPPVPEDATPTRPMYKRLTSEELFSAFKNPPAGEVARPTLPDMSPAVNGLDTLAVLGICTPLKPGASLNEFSGAPQNCPMISEEAGSPADPSAEIGFAMPMDLKQPVVTSDHPWQHHKISDSSAPPQTLESHQGWLDTQLVNTIMHSPNHPLPPTSNSPATPTAVLGHLIGKPIQPQAILPQAATPTALGSAEKPKSSRISLSDNSAFKAISSTQKQSIPKATAAPPSTEKTRSASLSGSSQVVGKPARNLFNSVVSPVSSGIQSIQGDGGAWEDVWFREQLAATTTAGTSISSLAASNQELAMINREETPIEDPYFKQQAYQKAQKAQSLIPACSQWTNSIKLDIDYVVGPLSFWMQQFSTKSPVSGTGPQLP
binding: binds

B3: MEG-2 (protein, UniProt Q21127 1-819)
chain: MENCDDLSSDENLPPPGDHRREQSQERARVGNRDESVSSTNMRSIGGAVHNQQQLYWTDMYNGSNNLENFWLCFSGNTSLADDPTVQSDSSASTQSRTNQSGTIAQETDNRNASNFPPRSTTRRGQTYESRDESQGGQAPSHQNQVPGVDRDEYAGDRSNVSINLPSVDQWREYSFSDNSFQGESRTVQRRSSRATHRVKNQFGSIGDGRTSNNTSLQEPVIQDTRNRNRSESSSTMSSQSRTEHAPIFRLQYNYQREADNRSSRLVQIQGHSAPNNANGLQNTGGQAPDIGPEVNGQSSDTRAMNMGNQMAQGDSHVPMNFVPRPLSNGVPRLHGVPRLVDMYDYELAQRAHARRYPTSNMPYGFPNAGFQAPPHMGLWPNNQNADTRAMNMDNRSRDRTFQMPPANAQVPTSSLSGLFNSSINHGSGNQQFQMGQSSSGSAPQLPALPENFLMAHANSQIPTSSLSGLFNAMNHGSGNRMNHSSSGPAPQLPNLPESFLMAHGIGQVETRSPAGPSNSSINHGSGNQQFPVQQSSSRPAPQLPNLPESFLMAHGLSQIQTSSTAGPSNSSMNHGSGNQQFRMGQSSSRPAPQLPSLQESFLMAHGIAQVETSSTAGPSNSSMNHGSGNQQFPVQQSSSRPAPHLPDLIRQEEEFLNTLEFEQFARRLYNDLLPGVDPNYDSGTSTSETPVLKFSITLKAMLYDYWRTMVQMQYRGANINFLQSIINLNARSAALNSSNARASGSADVQNQTVSATVEGADDASANVNALSDLLAQSFPRQAEGEASRRNDIDHPEDDLNQADSPKSDNQSDKDPPSN
binding: binds
